In the supplement of paper PMC10849652:
The other results are listed elsewhere or left out. Residues, ends and D or L forms follow the SMILES beside them. *: point of attachment. Cbz = O=C(OCc1ccccc1)*

Sequences of proteins named here, by UniProt entry; tags and fusion partners are left off. A change or cut given only in a name is not applied to a line headed by its entry.
UniProt Q9BT09: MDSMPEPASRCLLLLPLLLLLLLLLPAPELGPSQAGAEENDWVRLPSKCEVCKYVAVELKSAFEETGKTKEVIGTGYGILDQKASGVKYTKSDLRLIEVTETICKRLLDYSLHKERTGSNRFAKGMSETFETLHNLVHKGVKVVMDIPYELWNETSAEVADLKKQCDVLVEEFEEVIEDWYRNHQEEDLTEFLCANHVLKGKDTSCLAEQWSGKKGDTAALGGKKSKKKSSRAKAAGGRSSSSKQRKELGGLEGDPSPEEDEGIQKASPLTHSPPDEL
UniProt Q6PJW8: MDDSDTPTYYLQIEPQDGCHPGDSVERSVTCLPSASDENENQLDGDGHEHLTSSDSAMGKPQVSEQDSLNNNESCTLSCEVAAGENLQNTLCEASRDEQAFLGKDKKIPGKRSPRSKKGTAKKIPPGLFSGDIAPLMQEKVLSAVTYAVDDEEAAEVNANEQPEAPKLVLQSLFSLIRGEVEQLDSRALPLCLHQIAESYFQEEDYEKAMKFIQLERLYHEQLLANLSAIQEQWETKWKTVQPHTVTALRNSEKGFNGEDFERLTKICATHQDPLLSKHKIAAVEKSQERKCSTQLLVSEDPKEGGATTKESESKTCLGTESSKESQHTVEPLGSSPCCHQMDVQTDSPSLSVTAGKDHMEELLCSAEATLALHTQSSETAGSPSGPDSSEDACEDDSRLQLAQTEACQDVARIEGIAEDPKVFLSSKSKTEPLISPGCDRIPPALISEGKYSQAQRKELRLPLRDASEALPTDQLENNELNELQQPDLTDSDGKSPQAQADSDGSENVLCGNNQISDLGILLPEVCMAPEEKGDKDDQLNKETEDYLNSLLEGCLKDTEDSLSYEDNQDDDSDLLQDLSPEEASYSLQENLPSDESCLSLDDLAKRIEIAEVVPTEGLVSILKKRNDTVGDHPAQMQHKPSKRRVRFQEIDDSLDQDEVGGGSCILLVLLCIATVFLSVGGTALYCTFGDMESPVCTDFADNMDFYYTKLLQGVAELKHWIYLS
UniProt P09543: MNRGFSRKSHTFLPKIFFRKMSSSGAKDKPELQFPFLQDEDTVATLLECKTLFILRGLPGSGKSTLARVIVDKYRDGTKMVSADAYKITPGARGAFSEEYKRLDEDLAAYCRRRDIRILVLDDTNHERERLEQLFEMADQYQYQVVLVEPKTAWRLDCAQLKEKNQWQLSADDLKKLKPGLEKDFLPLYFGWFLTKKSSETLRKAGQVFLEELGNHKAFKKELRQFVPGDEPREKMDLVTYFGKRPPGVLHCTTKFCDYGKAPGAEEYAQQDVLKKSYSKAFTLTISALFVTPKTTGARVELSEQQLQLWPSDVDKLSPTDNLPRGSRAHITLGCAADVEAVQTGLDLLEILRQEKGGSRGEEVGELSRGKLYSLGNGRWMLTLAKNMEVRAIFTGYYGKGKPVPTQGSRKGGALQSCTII
UniProt Q96DG6: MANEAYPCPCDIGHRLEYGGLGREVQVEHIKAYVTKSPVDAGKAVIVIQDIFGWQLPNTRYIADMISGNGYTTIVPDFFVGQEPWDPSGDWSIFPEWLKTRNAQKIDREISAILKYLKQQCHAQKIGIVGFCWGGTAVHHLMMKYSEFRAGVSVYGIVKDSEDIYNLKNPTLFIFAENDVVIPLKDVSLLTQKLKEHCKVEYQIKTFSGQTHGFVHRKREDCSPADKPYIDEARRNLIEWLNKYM
UniProt Q7Z7K0: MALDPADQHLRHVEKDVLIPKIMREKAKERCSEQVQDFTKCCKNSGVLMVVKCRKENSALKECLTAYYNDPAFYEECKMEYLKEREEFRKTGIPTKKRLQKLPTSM
UniProt O76071: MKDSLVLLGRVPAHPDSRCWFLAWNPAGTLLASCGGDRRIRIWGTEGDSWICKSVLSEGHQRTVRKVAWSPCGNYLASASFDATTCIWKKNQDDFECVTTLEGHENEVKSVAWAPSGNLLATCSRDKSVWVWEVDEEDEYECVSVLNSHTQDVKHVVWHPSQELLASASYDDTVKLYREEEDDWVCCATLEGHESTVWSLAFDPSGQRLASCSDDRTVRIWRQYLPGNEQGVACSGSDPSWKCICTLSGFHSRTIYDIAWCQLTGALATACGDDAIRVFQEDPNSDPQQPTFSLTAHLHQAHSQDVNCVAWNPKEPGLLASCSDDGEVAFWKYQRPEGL
UniProt P62633: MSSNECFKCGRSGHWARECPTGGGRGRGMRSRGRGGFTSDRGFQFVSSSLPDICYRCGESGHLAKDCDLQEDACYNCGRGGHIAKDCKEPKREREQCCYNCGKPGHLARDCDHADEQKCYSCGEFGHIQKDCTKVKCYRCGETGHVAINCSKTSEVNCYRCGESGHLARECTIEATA
UniProt Q96FZ7: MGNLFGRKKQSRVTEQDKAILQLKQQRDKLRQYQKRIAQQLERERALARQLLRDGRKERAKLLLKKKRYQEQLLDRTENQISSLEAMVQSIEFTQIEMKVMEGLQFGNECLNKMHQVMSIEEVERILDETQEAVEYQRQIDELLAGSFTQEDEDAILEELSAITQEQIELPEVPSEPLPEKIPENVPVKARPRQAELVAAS
UniProt Q9Y2B0: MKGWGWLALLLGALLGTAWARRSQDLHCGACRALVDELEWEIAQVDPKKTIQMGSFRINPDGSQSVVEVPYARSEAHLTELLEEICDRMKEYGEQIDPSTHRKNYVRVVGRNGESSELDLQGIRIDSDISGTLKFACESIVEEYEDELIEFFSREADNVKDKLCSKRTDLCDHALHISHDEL
UniProt P39059: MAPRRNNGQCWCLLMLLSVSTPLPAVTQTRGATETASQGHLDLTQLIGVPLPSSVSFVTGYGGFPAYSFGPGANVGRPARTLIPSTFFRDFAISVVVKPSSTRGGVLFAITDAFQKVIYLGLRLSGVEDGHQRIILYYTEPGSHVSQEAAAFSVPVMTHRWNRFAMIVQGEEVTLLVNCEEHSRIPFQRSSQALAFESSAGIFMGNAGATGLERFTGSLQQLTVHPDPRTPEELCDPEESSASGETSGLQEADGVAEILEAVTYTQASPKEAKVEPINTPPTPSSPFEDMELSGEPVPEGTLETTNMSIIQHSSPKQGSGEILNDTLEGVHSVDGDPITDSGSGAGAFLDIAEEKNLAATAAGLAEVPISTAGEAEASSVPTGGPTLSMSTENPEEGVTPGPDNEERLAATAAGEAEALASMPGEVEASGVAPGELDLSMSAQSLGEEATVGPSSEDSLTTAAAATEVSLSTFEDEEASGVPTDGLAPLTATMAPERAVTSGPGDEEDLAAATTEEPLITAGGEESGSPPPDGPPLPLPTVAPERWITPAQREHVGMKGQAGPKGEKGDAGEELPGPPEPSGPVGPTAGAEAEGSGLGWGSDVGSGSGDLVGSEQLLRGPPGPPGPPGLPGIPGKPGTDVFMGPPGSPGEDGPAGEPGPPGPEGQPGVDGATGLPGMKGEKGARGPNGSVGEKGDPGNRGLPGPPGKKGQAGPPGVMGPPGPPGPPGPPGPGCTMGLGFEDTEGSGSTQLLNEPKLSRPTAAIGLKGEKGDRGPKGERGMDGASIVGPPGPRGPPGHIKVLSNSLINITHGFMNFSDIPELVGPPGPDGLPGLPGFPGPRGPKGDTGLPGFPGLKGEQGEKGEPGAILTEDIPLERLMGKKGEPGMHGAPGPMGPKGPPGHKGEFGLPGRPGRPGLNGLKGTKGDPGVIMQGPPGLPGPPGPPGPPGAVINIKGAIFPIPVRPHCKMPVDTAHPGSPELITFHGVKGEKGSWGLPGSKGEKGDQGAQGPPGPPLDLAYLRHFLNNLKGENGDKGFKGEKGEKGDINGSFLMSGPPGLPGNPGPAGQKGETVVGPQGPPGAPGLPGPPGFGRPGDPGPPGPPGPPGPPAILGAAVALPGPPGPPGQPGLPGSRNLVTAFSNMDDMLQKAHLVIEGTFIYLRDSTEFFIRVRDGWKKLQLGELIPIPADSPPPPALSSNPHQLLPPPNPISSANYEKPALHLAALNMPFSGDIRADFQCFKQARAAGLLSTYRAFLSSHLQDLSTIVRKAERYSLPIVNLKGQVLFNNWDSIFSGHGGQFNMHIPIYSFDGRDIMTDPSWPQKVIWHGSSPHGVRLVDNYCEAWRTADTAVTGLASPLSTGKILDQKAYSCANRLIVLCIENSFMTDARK
UniProt P30085: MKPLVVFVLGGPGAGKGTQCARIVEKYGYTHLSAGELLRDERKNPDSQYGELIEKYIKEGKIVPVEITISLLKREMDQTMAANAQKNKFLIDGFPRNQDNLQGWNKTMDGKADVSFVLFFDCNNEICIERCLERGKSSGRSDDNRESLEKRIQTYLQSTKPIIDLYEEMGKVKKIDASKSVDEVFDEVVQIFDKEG
UniProt Q8NE01: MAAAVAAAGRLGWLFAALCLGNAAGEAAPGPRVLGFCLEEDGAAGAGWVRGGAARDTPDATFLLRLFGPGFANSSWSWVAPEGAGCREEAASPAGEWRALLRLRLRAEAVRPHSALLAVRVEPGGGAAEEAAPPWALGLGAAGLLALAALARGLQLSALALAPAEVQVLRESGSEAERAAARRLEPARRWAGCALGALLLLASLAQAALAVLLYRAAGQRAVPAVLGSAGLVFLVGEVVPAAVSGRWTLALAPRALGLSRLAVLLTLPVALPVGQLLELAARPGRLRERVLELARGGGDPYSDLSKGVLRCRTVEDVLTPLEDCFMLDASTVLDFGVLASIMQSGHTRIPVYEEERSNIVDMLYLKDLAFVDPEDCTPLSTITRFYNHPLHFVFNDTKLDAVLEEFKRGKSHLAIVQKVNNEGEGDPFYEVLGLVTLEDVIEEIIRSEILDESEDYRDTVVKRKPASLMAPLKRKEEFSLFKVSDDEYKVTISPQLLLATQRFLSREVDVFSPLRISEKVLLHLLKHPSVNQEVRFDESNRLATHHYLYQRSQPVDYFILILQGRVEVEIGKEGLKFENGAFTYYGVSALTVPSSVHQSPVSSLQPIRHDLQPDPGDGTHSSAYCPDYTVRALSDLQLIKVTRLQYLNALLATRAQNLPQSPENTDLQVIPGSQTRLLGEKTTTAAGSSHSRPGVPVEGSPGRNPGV
UniProt Q14011: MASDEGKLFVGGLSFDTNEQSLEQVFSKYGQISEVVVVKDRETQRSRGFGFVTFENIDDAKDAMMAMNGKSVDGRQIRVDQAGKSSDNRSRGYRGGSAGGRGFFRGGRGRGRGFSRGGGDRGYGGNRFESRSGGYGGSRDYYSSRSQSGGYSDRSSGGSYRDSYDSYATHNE
UniProt Q9C0A0: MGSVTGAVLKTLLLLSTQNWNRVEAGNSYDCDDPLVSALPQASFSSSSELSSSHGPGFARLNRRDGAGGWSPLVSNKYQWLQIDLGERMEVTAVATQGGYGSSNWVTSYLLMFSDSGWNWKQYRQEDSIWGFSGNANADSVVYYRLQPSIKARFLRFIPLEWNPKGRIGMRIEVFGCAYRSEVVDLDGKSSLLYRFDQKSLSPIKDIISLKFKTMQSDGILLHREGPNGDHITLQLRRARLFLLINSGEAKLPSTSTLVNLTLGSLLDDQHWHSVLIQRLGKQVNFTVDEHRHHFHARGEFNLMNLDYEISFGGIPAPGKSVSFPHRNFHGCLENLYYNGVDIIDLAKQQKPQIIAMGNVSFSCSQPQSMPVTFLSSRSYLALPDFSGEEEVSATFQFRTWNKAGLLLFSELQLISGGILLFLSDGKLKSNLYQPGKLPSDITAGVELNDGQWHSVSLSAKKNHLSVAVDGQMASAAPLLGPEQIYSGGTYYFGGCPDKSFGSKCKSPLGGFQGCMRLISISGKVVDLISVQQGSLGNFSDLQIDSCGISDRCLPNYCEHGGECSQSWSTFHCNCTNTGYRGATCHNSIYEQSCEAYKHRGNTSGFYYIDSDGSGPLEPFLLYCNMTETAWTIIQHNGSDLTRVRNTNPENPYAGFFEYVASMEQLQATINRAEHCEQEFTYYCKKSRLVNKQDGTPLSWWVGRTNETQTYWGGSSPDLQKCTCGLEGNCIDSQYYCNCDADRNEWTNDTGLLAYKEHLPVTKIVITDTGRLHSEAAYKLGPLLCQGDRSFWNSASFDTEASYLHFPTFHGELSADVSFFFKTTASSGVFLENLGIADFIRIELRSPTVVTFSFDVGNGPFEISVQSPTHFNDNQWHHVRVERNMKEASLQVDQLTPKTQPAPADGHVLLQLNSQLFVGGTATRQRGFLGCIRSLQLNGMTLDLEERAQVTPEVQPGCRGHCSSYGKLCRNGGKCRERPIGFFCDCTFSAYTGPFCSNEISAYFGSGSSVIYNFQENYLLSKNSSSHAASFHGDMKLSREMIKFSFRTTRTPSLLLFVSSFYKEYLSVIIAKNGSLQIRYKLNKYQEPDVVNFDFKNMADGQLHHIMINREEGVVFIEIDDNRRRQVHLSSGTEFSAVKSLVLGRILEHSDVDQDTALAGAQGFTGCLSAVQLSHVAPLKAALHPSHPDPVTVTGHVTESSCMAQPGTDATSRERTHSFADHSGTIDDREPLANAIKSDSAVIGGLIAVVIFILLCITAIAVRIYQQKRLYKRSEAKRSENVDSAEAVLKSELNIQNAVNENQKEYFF
UniProt Q8WUH1: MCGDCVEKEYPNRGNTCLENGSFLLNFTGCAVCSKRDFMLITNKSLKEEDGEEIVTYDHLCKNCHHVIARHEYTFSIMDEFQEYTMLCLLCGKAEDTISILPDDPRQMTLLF

What was measured:
Test in all cases: log2 fold change, soluble protein after heating vs DMSO (PISA); higher = thermal stabilisation; K562 cells, 10 uM, 30 min; active = over 0.2 and 3.5 SD of the protein, either way, in both replicates (recomputed)
erlotinib = compound: C#Cc1cccc(Nc2ncnc3cc(OCCOC)c(OCCOC)cc23)c1 [erlotinib]
Summary of the method: (§1)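 For each measurement, 10 μM compound was applied for 30 min to K562 cells at 2×10^6 cells/mL. Aliquots were heated for 3 min across 48°C-58°C, pooled, and extracted in PBS with 0.5% NP-40 at 4°C; the supernatant after 21,000xg for 90 min was soluble protein. This was quantified by TMTpro 16plex LC-MS/MS with channel sums equalised, and thermal stability was reported relative to control samples from duplicates, on a log2 fold-change scale.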

[1] = compound: C/C(=N\NC(=O)C1=CC(=CC=C1)S(=O)(=O)N2CCOCC2)/C3=C(C=CC(=C3)Cl)O
Summary of the method: as §1

[2] = compound: C1=CC(=C(C=C1Cl)C2=NC3=NC=CN=C3C(=N2)NC4=CC=NC=C4)F
Summary of the method: as §1

[3] = compound: C1=CC(=CC=C1C2=NC3=C(N2)C=C(C=C3)C(=O)N)OC4=CC=C(C=C4)Cl
Summary of the method: as §1

[4] = compound: C1=CC2=C(C=CC(=C2)/C=C\3/C(=O)NC(=NCC4=CC=CS4)S3)N=C1
Summary of the method: as §1

[5] = compound: C1=CC2=NC=CN=C2C=C1/C=C/3\C(=O)NC(=O)S3
Summary of the method: as §1

[6] = compound: C1=CC=C(C=C1)C2=NC(=C(N2)C3=CC=NC=C3)C4=CC(=C(C=C4)Cl)O
Summary of the method: as §1

[7] = compound: C1=CC=C2C(=C1)C3=NNC4=CC=CC(=C43)C2=O
Summary of the method: as §1

[8] = compound: C1CCN(C1)C(=O)NC2=CC=CC(=C2)NC3=NC=C(C(=N3)NCCC4=CN=CN4)Br
Summary of the method: as §1

[9] = compound: C1CN(CCC1(CC2=CC=C(C=C2)Cl)N)C3=NC=NC4=C3C=CN4
Summary of the method: as §1

IRAK-1-4 Inhibitor I = compound: C1COCCN1CCN2C3=CC=CC=C3N=C2NC(=O)C4=CC(=CC=C4)[N+](=O)[O-] [IRAK-1-4 Inhibitor I]
Summary of the method: as §1

ibrutinib = compound: C=CC(=O)N1CCC[C@@H](n2nc(-c3ccc(Oc4ccccc4)cc3)c3c(N)ncnc32)C1 [ibrutinib]
Summary of the method: as §1

[10] = compound: CC(=O)c1cnc2ccc(-c3cc(Cl)c(O)c(Cl)c3)nc2c1N[C@H]1CC[C@H](CN(C)C)CC1
Summary of the method: as §1

ralimetinib = compound: CC(C)(C)Cn1c(N)nc2ccc(-c3[nH]c(C(C)(C)C)nc3-c3ccc(F)cc3)nc21 [ralimetinib]
Summary of the method: as §1

[11] = compound: CC(C)(O)CC(=O)NCCn1ccc2ncnc(Nc3ccc(Oc4cccc(C(F)(F)F)c4)c(Cl)c3)c21
Summary of the method: as §1

[12] = compound: CC(C)C1=C2N=C(C=C(N2N=C1)NCC3=CC=CC=C3)NCCCCCCN
Summary of the method: as §1

[13] = compound: CC(C)C[C@@H](C=O)NC(=O)[C@H](CC(C)C)NC(=O)[C@H](CC(C)C)NC(=O)OCc1ccccc1
Summary of the method: as §1

pinometostat = compound: CC(C)N(C[C@H]1O[C@@H](n2cnc3c(N)ncnc32)[C@H](O)[C@@H]1O)[C@H]1C[C@@H](CCc2nc3cc(C(C)(C)C)ccc3[nH]2)C1 [pinometostat]
Summary of the method: as §1

[14] = compound: CC1=C(C(CC(=O)N1)C2=CC=C(C=C2)C(F)(F)F)C(=O)NC3=C(C=C4C(=C3)C=NN4)F
Summary of the method: as §1

[15] = compound: CC1=C(C2=C(C=C1)C(=O)C3=CC=CC=C3N2CCCN)C
Summary of the method: as §1

Measured: log2 fold change

CNOT6L (UniProt Q96LI5)
inactive: erlotinib 0.669 | [1] -0.146 | [2] -0.021 | [3] 0.038 | [4] -0.05 | [5] -0.145 | [6] -0.03 | [7] -0.016 | [8] -0.073 | [9] 0.02 | IRAK-1-4 Inhibitor I -0.013 | ibrutinib -0.002 | [10] -0.042 | ralimetinib -0.031 | [11] -0.062 | [12] -0.026 | [13] 0.053 | pinometostat 0.012 | [14] 0.08 | [15] 0.114

CNPY3 (UniProt Q9BT09)
inactive: erlotinib -0.011 | [1] -0.021 | [2] -0.001 | [3] -0.031 | [4] 0.038 | [5] -0.014 | [6] -0.06 | [7] 0.018 | [8] -0.007 | [9] 0.053 | IRAK-1-4 Inhibitor I 0.063 | ibrutinib 0.005 | [10] 0.052 | ralimetinib -0.037 | [11] 0.023 | [12] -0.05 | [13] -0.056 | pinometostat -0.017 | [14] 0.012 | [15] 0.016

CNST (UniProt Q6PJW8)
inactive: erlotinib 0.029 | [1] -0.007 | [2] 0.107 | [3] 0 | [4] 0.004 | [5] 0.101 | [6] -0.029 | [7] -0.027 | [8] 0.06 | [9] 0.03 | IRAK-1-4 Inhibitor I 0.06 | ibrutinib 0.007 | [10] -0.008 | ralimetinib -0.008 | [11] -0.056 | [12] -0.026 | [13] 0.03 | pinometostat -0.046 | [14] 0.022 | [15] -0.034

CNP (UniProt P09543)
inactive: erlotinib 0.005 | [1] 0.062 | [2] 0.028 | [3] -0.014 | [4] -0.005 | [5] 0.006 | [6] 0.005 | [7] 0.016 | [8] -0.003 | [9] 0.004 | IRAK-1-4 Inhibitor I 0.027 | ibrutinib -0.003 | [10] -0.041 | ralimetinib -0.043 | [11] -0.009 | [12] 0.052 | [13] 0.011 | pinometostat -0.017 | [14] 0.01 | [15] 0.071

CMBL (UniProt Q96DG6)
inactive: erlotinib 0.084 | [1] -0.024 | [2] 0.059 | [3] -0.084 | [4] 0.049 | [5] 0.008 | [6] 0.007 | [7] -0.01 | [8] 0.025 | [9] 0.021 | IRAK-1-4 Inhibitor I 0.074 | ibrutinib 0.007 | [10] 0.167 | ralimetinib -0.026 | [11] -0.016 | [12] 0.019 | [13] -0.05 | pinometostat -0.087 | [14] -0.028 | [15] 0.015

CMC1 (UniProt Q7Z7K0)
inactive: erlotinib 0.096 | [1] -0.147 | [2] 0.064 | [3] 0.018 | [4] -0.223 | [5] 0.068 | [6] 0.047 | [7] -0.066 | [8] 0.127 | [9] 0.145 | IRAK-1-4 Inhibitor I 0.048 | ibrutinib 0.015 | [10] 0.108 | ralimetinib -0.055 | [11] 0.005 | [12] 0.095 | [13] -0.005 | pinometostat -0.01 | [14] 0.046 | [15] -0.1

Two successive entries already listed, quoted:
CNP (UniProt P09543)
inactive: erlotinib 0.005 | [1] 0.062 | [2] 0.028 | [3] -0.014 | [4] -0.005 | [5] 0.006 | [6] 0.005 | [7] 0.016 | [8] -0.003 | [9] 0.004 | IRAK-1-4 Inhibitor I 0.027 | ibrutinib -0.003 | [10] -0.041 | ralimetinib -0.043 | [11] -0.009 | [12] 0.052 | [13] 0.011 | pinometostat -0.017 | [14] 0.01 | [15] 0.071

CMBL (UniProt Q96DG6)
inactive: erlotinib 0.084 | [1] -0.024 | [2] 0.059 | [3] -0.084 | [4] 0.049 | [5] 0.008 | [6] 0.007 | [7] -0.01 | [8] 0.025 | [9] 0.021 | IRAK-1-4 Inhibitor I 0.074 | ibrutinib 0.007 | [10] 0.167 | ralimetinib -0.026 | [11] -0.016 | [12] 0.019 | [13] -0.05 | pinometostat -0.087 | [14] -0.028 | [15] 0.015

More records

CIAO1 (UniProt O76071)
inactive: erlotinib 0.021 | [1] 0.005 | [2] 0.086 | [3] -0.025 | [4] -0.029 | [5] 0.008 | [6] -0.02 | [7] 0.038 | [8] -0.012 | [9] 0.026 | IRAK-1-4 Inhibitor I -0.032 | ibrutinib 0.004 | [10] -0.026 | ralimetinib -0.05 | [11] -0.009 | [12] 0.009 | [13] -0.073 | pinometostat -0.015 | [14] 0.04 | [15] 0.096

CNBP isoform 6 (UniProt P62633)
inactive: erlotinib -0.022 | [1] -0.017 | [2] -0.12 | [3] -0.021 | [4] -0.04 | [5] 0.011 | [6] -0.064 | [7] -0.014 | [8] -0.004 | [9] 0.035 | IRAK-1-4 Inhibitor I 0.003 | ibrutinib 0.038 | [10] 0.002 | ralimetinib 0.058 | [11] 0.086 | [12] 0.134 | [13] 0.052 | pinometostat 0 | [14] 0.021 | [15] 0.038

CHMP6 (UniProt Q96FZ7)
inactive: erlotinib -0.039 | [1] 0.041 | [2] 0.121 | [3] -0.026 | [4] 0.012 | [5] 0.039 | [6] -0.01 | [7] -0.072 | [8] 0.002 | [9] 0.094 | IRAK-1-4 Inhibitor I 0.045 | ibrutinib 0.005 | [10] 0.01 | ralimetinib 0.029 | [11] -0.031 | [12] 0.061 | [13] -0.085 | pinometostat -0.012 | [14] 0.041 | [15] 0.004

CNPY2 (UniProt Q9Y2B0)
inactive: erlotinib 0.016 | [1] 0.05 | [2] 0.034 | [3] -0.037 | [4] 0.06 | [5] 0.046 | [6] -0.053 | [7] -0.026 | [8] 0.038 | [9] 0.004 | IRAK-1-4 Inhibitor I 0.041 | ibrutinib -0.014 | [10] -0.006 | ralimetinib -0.077 | [11] 0.042 | [12] 0.03 | [13] -0.008 | pinometostat -0.079 | [14] 0.031 | [15] -0.051

COL15A1 (UniProt P39059)
inactive: erlotinib -0.112 | [1] -0.103 | [2] -0.009 | [3] 0.044 | [4] 0.098 | [5] -0.066 | [6] 0.01 | [7] -0.066 | [8] 0.018 | [9] 0.12 | IRAK-1-4 Inhibitor I -0.156 | ibrutinib 0.014 | [10] 0.374 | ralimetinib 0.105 | [11] -0.002 | [12] -0.039 | [13] 0.131 | pinometostat -0.055 | [14] -0.146 | [15] 0.115

CMPK1 (UniProt P30085)
inactive: erlotinib -0.042 | [1] 0.085 | [2] 0.123 | [3] -0.029 | [4] -0.015 | [5] 0.019 | [6] -0.019 | [7] 0.046 | [8] 0.058 | [9] 0.031 | IRAK-1-4 Inhibitor I 0.04 | ibrutinib 0.021 | [10] -0.008 | ralimetinib -0.014 | [11] -0.029 | [12] 0.044 | [13] 0.003 | pinometostat 0 | [14] -0.01 | [15] 0.084

CNNM3 (UniProt Q8NE01)
inactive: erlotinib 0.047 | [1] -0.002 | [2] -0.012 | [3] 0.008 | [4] 0.05 | [5] 0.003 | [6] -0.027 | [7] -0.067 | [8] -0.017 | [9] 0.03 | IRAK-1-4 Inhibitor I 0.008 | ibrutinib 0.007 | [10] -0.065 | ralimetinib -0.05 | [11] 0.022 | [12] 0.019 | [13] 0.05 | pinometostat -0.026 | [14] 0.007 | [15] 0.051

CIRBP isoform 2 (UniProt Q14011)
inactive: erlotinib -0.056 | [1] -0.076 | [2] -0.219 | [3] 0 | [4] -0.02 | [5] 0.006 | [6] 0.009 | [7] 0 | [8] 0.035 | [9] -0.092 | IRAK-1-4 Inhibitor I -0.083 | ibrutinib 0.024 | [10] 0.061 | ralimetinib 0.19 | [11] 0.055 | [12] 0.096 | [13] 0.115 | pinometostat 0.082 | [14] 0.011 | [15] -0.094

CNTNAP4 (UniProt Q9C0A0)
inactive: erlotinib -0.1 | [1] -0.075 | [2] -0.205 | [3] 0.08 | [4] -0.102 | [5] 0.011 | [6] -0.139 | [7] -0.069 | [8] 0.097 | [9] -0.082 | IRAK-1-4 Inhibitor I -0.169 | ibrutinib 0.051 | [10] 0.083 | ralimetinib 0.037 | [11] 0.455 | [12] 0.004 | [13] 0.055 | pinometostat 0.293 | [14] -0.007 | [15] -0.727

CHURC1 isoform 2 (UniProt Q8WUH1)
inactive: erlotinib 0.004 | [1] 0.047 | [2] 0.025 | [3] 0 | [4] 0.096 | [5] 0.02 | [6] -0.053 | [7] -0.082 | [8] -0.005 | [9] 0.035 | IRAK-1-4 Inhibitor I -0.195 | ibrutinib 0.013 | [10] -0.058 | ralimetinib -0.054 | [11] -0.032 | [12] 0.026 | [13] 0.026 | pinometostat 0.061 | [14] 0.019 | [15] -0.004
